Data reported in paper PMC11741287.
No constants are given. Whether binding was seen depends on the method and setting. Binding seen in cells or lysates may run through a third protein. These calls come from enrichment with a bait or labelling near it, and not all partners need be listed.

Chains of the proteins cited; added tags and fusions are not shown.
UniProt Q02156: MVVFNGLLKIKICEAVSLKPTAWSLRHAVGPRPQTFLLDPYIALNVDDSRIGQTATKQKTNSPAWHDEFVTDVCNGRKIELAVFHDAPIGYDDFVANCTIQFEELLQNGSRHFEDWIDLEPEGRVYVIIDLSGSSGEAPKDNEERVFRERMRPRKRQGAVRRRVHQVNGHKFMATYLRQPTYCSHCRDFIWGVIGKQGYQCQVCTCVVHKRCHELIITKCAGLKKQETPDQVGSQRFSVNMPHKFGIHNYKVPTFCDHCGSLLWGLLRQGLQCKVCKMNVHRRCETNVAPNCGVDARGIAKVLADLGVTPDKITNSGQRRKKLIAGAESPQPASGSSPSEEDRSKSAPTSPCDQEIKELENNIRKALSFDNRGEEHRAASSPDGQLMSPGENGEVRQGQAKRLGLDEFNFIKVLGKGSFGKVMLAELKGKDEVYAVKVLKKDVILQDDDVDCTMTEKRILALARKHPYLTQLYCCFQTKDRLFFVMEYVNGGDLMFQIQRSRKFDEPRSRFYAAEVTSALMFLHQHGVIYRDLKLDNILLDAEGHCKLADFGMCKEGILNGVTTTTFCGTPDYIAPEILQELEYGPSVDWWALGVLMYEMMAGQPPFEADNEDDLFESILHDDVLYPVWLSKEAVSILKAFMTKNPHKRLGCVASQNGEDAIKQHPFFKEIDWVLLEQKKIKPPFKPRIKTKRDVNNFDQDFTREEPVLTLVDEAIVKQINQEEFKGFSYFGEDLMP

Target: Flag-PKCɛ (human) (UniProt Q02156)
Experiment: affinity purification with mass spectrometry; agarose FLAG beads on lysates of transfected HEK293T cells (Opto-PKCɛ cells after five minutes of blue light); on-bead digestion, LC-MS/MS, label-free quantitation; untransfected HEK293T as negative control, proteins at least 10 times more abundant considered

B1: MARCKS (protein, UniProt P29966 1-332)
chain: MGAQFSKTAAKGEAAAERPGEAAVASSPSKANGQENGHVKVNGDASPAAAESGAKEELQANGSAPAADKEEPAAAGSGAASPSAAEKGEPAAAAAPEAGASPVEKEAPAEGEAAEPGSPTAAEGEAASAASSTSSPKAEDGATPSPSNETPKKKKKRFSFKKSFKLSGFSFKKNKKEAGEGGEAEAPAAEGGKDEAAGGAAAAAAEAGAASGEQAAAPGEEAAAGEEGAAGGDPQEAKPQEAAVAPEKPPASDETKAAEEPSKVEEKKAEEAGASAAACEAPSAAGPGAPPEQEAAPAEEPAAAAASSACAAPSQEAQPECSPEAPPAEAAE
  binding: binds
